Like-named read-outs stand apart in the source and are kept apart here.

The nature of this data set: general procedure: solution-phase peptide synthesis; pentafluorophenol (PFP) / DIC, DIPEA.

Turning to “(4S)-5-(4-aminophenyl)-4-({2-[(1R,3R)-3-[(2S,3S)—N-hexyl-3-methyl-2-{[(2R)-1-methylpiperidin-2-yl]formamido}pentanamido]-1-hydroxy-4-methylpentyl]-1,3-thiazol-4-yl}formamido)-2,2-dimethylpentanoic Acid”, the “final HPLC purity” value (coupling step) was determined as 99%. Moreover, where the note is “coupling step, from 2Aa”, the step yield was determined as 47%.

For the substance “(4S)-4-({2-[(1R,3R)-1-(acetyloxy)-3-[(2S,3S)—N-hexyl-3-methyl-2-{[(2R)-1-methylpiperidin-2-yl]formamido}pentanamido]-4-methylpentyl]-1,3-thiazol-4-yl}formamido)-5-[4-(2-hydroxyacetamido)phenyl]-2,2-dimethylpentanoic Acid”, where the note is “coupling step”, the “purity (crude or final not stated)” value was 98% and the step yield was found to be 25%.

In the case of “(1R,3R)-1-(4-{[(2S)-4-[(4-aminobenzenesulfonyl)carbamoyl]-1-(4-fluorophenyl)-4,4-dimethylbutan-2-yl]carbamoyl}-1,3-thiazol-2-yl)-3-[(2S,3S)—N-hexyl-3-methyl-2-{[(2R)-1-methylpiperidin-2-yl]formamido}pentanamido]-4-methylpentyl Acetate”, the “purity (crude or final not stated)” value (late stage modification step) stood at 99%. The step yield (late stage modification step, from P10) was 72% yield.

In the case of “(2S,3S)—N-[(1R,3R)-1-(4-{[(2S)-4-{[(4-aminophenyl)methanesulfonyl]carbamoyl}-4,4-dimethyl-1-phenylbutan-2-yl]carbamoyl}-1,3-thiazol-2-yl)-1-ethoxy-4-methylpentan-3-yl]-N-hexyl-3-methyl-2-{[(2R)-1-methylpiperidin-2-yl]formamido}pentanamide”, where the note is “late stage modification step”, the “purity (crude or final not stated)” value was 99%. In addition, the step yield (late stage modification step, from P50) was 6.5% yield.

For the substance “(4S)-5-(4-aminophenyl)-4-({2-[(1R,3R)-1-ethoxy-3-[(2S,3S)—N-hexyl-3-methyl-2-{[(2R,4R)-4-methylpiperidin-2-yl]formamido}pentanamido]-4-methylpentyl]-1,3-thiazol-4-yl}formamido)-2,2-dimethylpentanoic Acid”, the “final HPLC purity” value came out at 99%. This substance also returned a step yield (coupling step) of 29%.

With “(4S)-4-({2-[(1R,3R)-1-(acetyloxy)-4-methyl-3-[(2S,3S)-3-methyl-2-{[(2R)-1-methylpiperidin-2-yl]formamido}-N-(pent-4-yn-1-yloxy)pentanamido]pentyl]-1,3-thiazol-4-yl}formamido)-5-(4-aminophenyl)-2,2-dimethylpentanoic Acid”, where the note is “coupling step”, the “purity (crude or final not stated)” value is recorded as 95% and the step yield was 27%.

Turning to “(4S)-4-({2-[(1R,3R)-1-(acetyloxy)-3-[(2S,3S)-2-{[(2R,4R)-1,4-dimethylpiperidin-2-yl]formamido}-N-hexyl-3-methylpentanamido]-4-methylpentyl]-1,3-thiazol-4-yl}formamido)-5-(4-amino-3-fluorophenyl)-2,2-dimethylpentanoic Acid”, for the setting “coupling step”, the “final HPLC purity” value is reported as 96% and the step yield is recorded as 13%.

For the substance “(4S)-4-({2-[(1R,3R)-1-(acetyloxy)-3-[(2S,3S)—N-hexyl-3-methyl-2-{[(2R)-1-methylpiperidin-2-yl]formamido}pentanamido]-4-methylpentyl]-1,3-thiazol-4-yl}formamido)-5-[4-(2-aminoacetamido)phenyl]-2,2-dimethylpentanoic Acid”, where the note is “coupling step”, the “final HPLC purity” value is reported as 95%. The substance further gave a step yield (coupling step, from 3Fa) of 11%.

For “(4S)-4-({2-[(1R,3R)-1-(acetyloxy)-3-[(2S,3S)—N-hexyl-3-methyl-2-{[(2R)-1-methylpiperidin-2-yl]formamido}pentanamido]-4-methylpentyl]-1,3-thiazol-4-yl}formamido)-5-(4-fluorophenyl)-2,2-dimethylpentanoic Acid”, under “coupling step”, the “final HPLC purity” value is greater than 99%. In addition, the step yield (coupling step, from 3Fa) was 26%.

For “(4S)-5-(4-amino-3-fluorophenyl)-4-({2-[(1R,3R)-3-[(2S,3S)—N-hexyl-3-methyl-2-{[(2R)-1-methylpiperidin-2-yl]formamido}pentanamido]-1-hydroxy-4-methylpentyl]-1,3-thiazol-4-yl}formamido)-2,2-dimethylpentanoic Acid”, the “final HPLC purity” value (late stage modification step) was greater than 99%. Moreover, the step yield (late stage modification step, from P2) is on record as 90%.

On to “(4S)-4-({2-[(1R,3R)-1-(acetyloxy)-3-[(2S,3S)-2-{[(2R)-1,2-dimethylpyrrolidin-2-yl]formamido}-N-hexyl-3-methylpentanamido]-4-methylpentyl]-1,3-thiazol-4-yl}formamido)-5-(4-aminophenyl)-2,2-dimethylpentanoic Acid”, for which the “final HPLC purity” value was greater than 99%. This substance also displayed a step yield (coupling step) of 6.7%.

As to “(4S)-5-(4-aminophenyl)-4-({2-[(1R,3R)-1-ethoxy-3-[(2S,3S)—N-hexyl-3-methyl-2-[(2R)-piperidin-2-ylformamido]pentanamido]-4-methylpentyl]-1,3-thiazol-4-yl}formamido)-2,2-dimethylpentanoic Acid”, the “final HPLC purity” value was greater than 99%. Besides, under “coupling step, from 3Bb”, the step yield was 22%.

In the case of “(4S)-5-[4-(2-aminoacetamido)phenyl]-4-({2-[(1R,3R)-1-ethoxy-3-[(2S,3S)—N-hexyl-3-methyl-2-{[(2R)-1-methylpiperidin-2-yl]formamido}pentanamido]-4-methylpentyl]-1,3-thiazol-4-yl}formamido)-2,2-dimethylpentanoic Acid”, where the note is “coupling step”, the “final HPLC purity” value was 99% and the step yield came to 11%.

On to “(4S)-4-({2-[(1R,3R)-1-(acetyloxy)-3-[(2S,3S)—N-hexyl-3-methyl-2-[(2R)-piperidin-2-ylformamido]pentanamido]-4-methylpentyl]-1,3-thiazol-4-yl}formamido)-5-(4-amino-3-fluorophenyl)-2,2-dimethylpentanoic Acid”, for which the “final HPLC purity” value (coupling step) is listed as greater than 99%. This substance also yielded a step yield (coupling step, from 3Fb) of 7.5%.

As for “(4S)-4-({2-[(1R,3R)-1-(acetyloxy)-4-methyl-3-[(2S,3S)-3-methyl-2-{[(2R)-1-methylpiperidin-2-yl]formamido}-N-(pent-4-yn-1-yloxy)pentanamido]pentyl]-1,3-thiazol-4-yl}formamido)-5-[4-(2-hydroxyacetamido)phenyl]-2,2-dimethylpentanoic Acid”, the “purity (crude or final not stated)” value stood at 99%. Also, the step yield (coupling step) was found to be 48% yield.

Regarding “(4S)-4-({2-[(1R,3R)-1-(acetyloxy)-4-methyl-3-[(2S,3S)-3-methyl-2-{[(2R)-1-methylpiperidin-2-yl]formamido}-N-(pent-4-yn-1-yloxy)pentanamido]pentyl]-1,3-thiazol-4-yl}formamido)-5-(4-hydroxyphenyl)-2,2-dimethylpentanoic Acid”, the “purity (crude or final not stated)” value (coupling step) came out at 95%. In addition, the step yield (coupling step, from 3Ia) worked out at 12%.

Take “(4S)-4-({2-[(1R,3R)-1-(acetyloxy)-3-[(2S,3S)—N-hexyl-3-methyl-2-[(2R)-piperidin-2-ylformamido]pentanamido]-4-methylpentyl]-1,3-thiazol-4-yl}formamido)-5-(4-aminophenyl)-2,2-dimethylpentanoic Acid”: the “final HPLC purity” value worked out at 99%. The same substance displayed a step yield (coupling step, from 3Fb) of 18%.

Turning to “(4S)-4-({2-[(1R,3R)-1-(acetyloxy)-3-[(2S,3S)—N-hexyl-3-methyl-2-{[(2R,4R)-4-methylpiperidin-2-yl]formamido}pentanamido]-4-methylpentyl]-1,3-thiazol-4-yl}formamido)-5-(4-amino-3-fluorophenyl)-2,2-dimethylpentanoic Acid”, the “final HPLC purity” value (coupling step) is 99%. For the same substance, the step yield (coupling step, from 3Fd) was determined as 32%.

As for NH2-PEG4-Evc-P34, the “final HPLC purity” value (conjugation step) is given as 99%. For the same substance, where the note is “conjugation step, from L1-3b”, the conjugation yield is 33% yield.

As for “(4S)-5-[4-(2-aminoacetamido)-3-fluorophenyl]-4-({2-[(1R,3R)-1-ethoxy-3-[(2S,3S)—N-hexyl-3-methyl-2-{[(2R)-1-methylpiperidin-2-yl]formamido}pentanamido]-4-methylpentyl]-1,3-thiazol-4-yl}formamido)-2,2-dimethylpentanoic Acid”, the “final HPLC purity” value (coupling step) amounted to 99%. For the setting “coupling step, from 3Ba”, this substance showed a step yield of 13%.

Turning to “(4S)-4-({2-[(1R,3R)-1-(acetyloxy)-4-methyl-3-[(2S,3S)-3-methyl-N-(pentyloxy)-2-[(2R)-piperidin-2-ylformamido]pentanamido]pentyl]-1,3-thiazol-4-yl}formamido)-5-(4-aminophenyl)-2,2-dimethylpentanoic Acid”, under “coupling step”, the “final HPLC purity” value is reported as 99%. Moreover, the step yield (coupling step, from 3Ic) came out at 13%.

As for “(4S)-5-(4-amino-3-fluorophenyl)-4-({2-[(1R,3R)-1-ethoxy-3-[(2S,3S)—N-hexyl-3-methyl-2-{[(2R,4R)-4-methylpiperidin-2-yl]formamido}pentanamido]-4-methylpentyl]-1,3-thiazol-4-yl}formamido)-2,2-dimethylpentanoic Acid”, the “final HPLC purity” value is 99%. The substance further had a step yield (coupling step, from 3Bc) of 26%.

In the case of “(4S)-4-({2-[(1R,3R)-3-[(2S,3S)—N-hexyl-3-methyl-2-{[(2R)-2-methylpyrrolidin-2-yl]formamido}pentanamido]-4-methyl-1-[(methylcarbamoyl)oxy]pentyl]-1,3-thiazol-4-yl}formamido)-5-(4-hydroxyphenyl)-2,2-dimethylpentanoic Acid”, the “final HPLC purity” value was greater than 99%. Further, where the note is “coupling step, from 3Ed”, the step yield turned out to be 22%.

As for “(4S)-5-(4-aminophenyl)-4-({2-[(1R,3R)-1-hydroxy-4-methyl-3-[(2S,3S)-3-methyl-2-{[(2R)-1-methylpiperidin-2-yl]formamido}-N-(pent-4-yn-1-yloxy)pentanamido]pentyl]-1,3-thiazol-4-yl}formamido)-2,2-dimethylpentanoic Acid”, where the note is “late stage modification step”, the “final HPLC purity” value is reported as greater than 99% and the step yield is 90%.

As to “(4S)-4-({2-[(1R,3R)-1-(acetyloxy)-3-[(2S,3S)—N-hexyl-3-methyl-2-{[(2R)-2-methylpyrrolidin-2-yl]formamido}pentanamido]-4-methylpentyl]-1,3-thiazol-4-yl}formamido)-5-(4-amino-3-fluorophenyl)-2,2-dimethylpentanoic Acid”, the “final HPLC purity” value is greater than 99%. The same substance yielded a step yield (coupling step, from 3Ff) of 7.6%.

For the origin of these results see US20230069722A1 (priority 2020, published 2023).
